PubChem BioAssay AID652259 – Drosophila RNAi Screening Center – 2013
The deposit covers about 22,000 reagents; shown is a random part of those with a known target gene and a result. Over the whole deposit, 233 (1.1%) are marked active. 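Light values are raw, unnormalised plate reads; the ratio scores behind the reporter calls were not deposited.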 The numbers tell different reagents against one gene apart. A plus sign joins genes that one reagent is predicted to hit. Not stated in the record: the amount of reagent, the time to read-out, the dose of the treatment.

Purpose: 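Identify new Wingless signalling regulators in fly cells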 (primary screen)
System: Drosophila clone 8 imaginal disc epithelial cells
Knock-down reagent: long dsRNA against Drosophila genes
Challenge: pathway stimulated by co-transfected Wingless expression plasmid
Measured: 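Firefly luciferase from a tcf-site Wingless reporter, measured alongside co-transfected Renilla luciferase that tracks transfection; pathway stimulated by a Wingless plasmid; the firefly-to-Renilla ratio is not deposited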
Direction: firefly reporter light: higher = more Wg reporter light, before normalisation; Renilla control light: higher = more transfected or surviving cells
Rule for the call: 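Strong candidates differ from their plate mean by at least two out of four per-plate statistical tests; weak candidates meet just one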
Calls: active = candidate regulator (raises or lowers reporter); inactive = not a candidate

Dpy-30L1 | firefly reporter light, replicate 1: 2450; firefly reporter light, replicate 2: 7377; Renilla control light, replicate 1: 1114; Renilla control light, replicate 2: 4103; activity call: inactive
dpy #1 | firefly reporter light, replicate 1: 12179; Renilla control light, replicate 1: 7785; activity call: inactive
dpy #2 | firefly reporter light, replicate 1: 18755; Renilla control light, replicate 1: 8409; activity call: inactive
dpy #3 | firefly reporter light, replicate 1: 3741; firefly reporter light, replicate 2: 7571; Renilla control light, replicate 1: 1489; Renilla control light, replicate 2: 2661; activity call: inactive
lncRNA:CR30121 | firefly reporter light, replicate 1: 3.38e5; firefly reporter light, replicate 2: 3.31e5; Renilla control light, replicate 1: 1.67e5; Renilla control light, replicate 2: 1.20e5; activity call: inactive
Prp3 | firefly reporter light, replicate 1: 13384; Renilla control light, replicate 1: 2652; activity call: inactive
CG17242 | firefly reporter light, replicate 1: 2050; firefly reporter light, replicate 2: 5203; Renilla control light, replicate 1: 812; Renilla control light, replicate 2: 1953; activity call: inactive
CG43896 #1 | firefly reporter light, replicate 1: 6326; Renilla control light, replicate 1: 3244; activity call: inactive
CG43896 #2 | firefly reporter light, replicate 1: 5873; Renilla control light, replicate 1: 2850; activity call: inactive
CG4218 | firefly reporter light, replicate 1: 3640; firefly reporter light, replicate 2: 8256; Renilla control light, replicate 1: 1315; Renilla control light, replicate 2: 3500; activity call: inactive
Fdx2 | firefly reporter light, replicate 1: 6836; Renilla control light, replicate 1: 3639; activity call: inactive
Dhx15 | firefly reporter light, replicate 1: 16801; Renilla control light, replicate 1: 3520; activity call: inactive
CG13870 | firefly reporter light, replicate 1: 4280; Renilla control light, replicate 1: 1858; activity call: inactive
CG30049 | firefly reporter light, replicate 1: 8.21e5; firefly reporter light, replicate 2: 7.31e5; Renilla control light, replicate 1: 8.50e5; Renilla control light, replicate 2: 4.73e5; activity call: inactive
Dbct | firefly reporter light, replicate 1: 3952; firefly reporter light, replicate 2: 8221; Renilla control light, replicate 1: 1187; Renilla control light, replicate 2: 3120; activity call: inactive
CG6836 | firefly reporter light, replicate 1: 5792; Renilla control light, replicate 1: 2471; activity call: inactive
ab #1 | firefly reporter light, replicate 1: 21533; Renilla control light, replicate 1: 4840; activity call: inactive
ab #2 | firefly reporter light, replicate 1: 1968; firefly reporter light, replicate 2: 7418; Renilla control light, replicate 1: 409; Renilla control light, replicate 2: 861; activity call: inactive
Sdhaf3 | firefly reporter light, replicate 1: 21638; Renilla control light, replicate 1: 4650; activity call: inactive
PH4alphaPV | firefly reporter light, replicate 1: 1.08e6; firefly reporter light, replicate 2: 1.06e6; Renilla control light, replicate 1: 5.56e5; Renilla control light, replicate 2: 2.09e5; activity call: inactive
CG6294 + CG6299 + CG15642 | firefly reporter light, replicate 1: 23676; Renilla control light, replicate 1: 10051; activity call: inactive
CG6026 | firefly reporter light, replicate 1: 24010; Renilla control light, replicate 1: 3511; activity call: inactive
AstC | firefly reporter light, replicate 1: 2664; firefly reporter light, replicate 2: 8988; Renilla control light, replicate 1: 970; Renilla control light, replicate 2: 4084; activity call: inactive
CG18766 | firefly reporter light, replicate 1: 2147; firefly reporter light, replicate 2: 4246; Renilla control light, replicate 1: 964; Renilla control light, replicate 2: 1717; activity call: inactive
CG42254 (retired record) | firefly reporter light, replicate 1: 7085; Renilla control light, replicate 1: 2602; activity call: inactive
mia | firefly reporter light, replicate 1: 7261; Renilla control light, replicate 1: 1746; activity call: inactive
CG42329 #1 | firefly reporter light, replicate 1: 2332; firefly reporter light, replicate 2: 5917; Renilla control light, replicate 1: 1072; Renilla control light, replicate 2: 2438; activity call: inactive
CG42329 #2 | firefly reporter light, replicate 1: 1936; firefly reporter light, replicate 2: 6640; Renilla control light, replicate 1: 912; Renilla control light, replicate 2: 3014; activity call: inactive
CG31600 | firefly reporter light, replicate 1: 8.53e5; firefly reporter light, replicate 2: 8.77e5; Renilla control light, replicate 1: 3.03e5; Renilla control light, replicate 2: 2.86e5; activity call: inactive
CG12439 | firefly reporter light, replicate 1: 2176; firefly reporter light, replicate 2: 3424; Renilla control light, replicate 1: 761; Renilla control light, replicate 2: 2037; activity call: inactive
Corp | firefly reporter light, replicate 1: 1660; firefly reporter light, replicate 2: 3637; Renilla control light, replicate 1: 604; Renilla control light, replicate 2: 1280; activity call: inactive
CG40485 | firefly reporter light, replicate 1: 22049; Renilla control light, replicate 1: 12296; activity call: inactive

Sorted by “Renilla control light, replicate 1” (descending): 4 of the entries above
Fdx2 | firefly reporter light, replicate 1: 6836; Renilla control light, replicate 1: 3639; activity call: inactive
Dhx15 | firefly reporter light, replicate 1: 16801; Renilla control light, replicate 1: 3520; activity call: inactive
CG43896 #2 | firefly reporter light, replicate 1: 5873; Renilla control light, replicate 1: 2850; activity call: inactive
CG4218 | firefly reporter light, replicate 1: 3640; firefly reporter light, replicate 2: 8256; Renilla control light, replicate 1: 1315; Renilla control light, replicate 2: 3500; activity call: inactive
